The target of the experiment is T1, Cex1-HA (S. cerevisiae) (UniProt Q12453).
T1 sequence: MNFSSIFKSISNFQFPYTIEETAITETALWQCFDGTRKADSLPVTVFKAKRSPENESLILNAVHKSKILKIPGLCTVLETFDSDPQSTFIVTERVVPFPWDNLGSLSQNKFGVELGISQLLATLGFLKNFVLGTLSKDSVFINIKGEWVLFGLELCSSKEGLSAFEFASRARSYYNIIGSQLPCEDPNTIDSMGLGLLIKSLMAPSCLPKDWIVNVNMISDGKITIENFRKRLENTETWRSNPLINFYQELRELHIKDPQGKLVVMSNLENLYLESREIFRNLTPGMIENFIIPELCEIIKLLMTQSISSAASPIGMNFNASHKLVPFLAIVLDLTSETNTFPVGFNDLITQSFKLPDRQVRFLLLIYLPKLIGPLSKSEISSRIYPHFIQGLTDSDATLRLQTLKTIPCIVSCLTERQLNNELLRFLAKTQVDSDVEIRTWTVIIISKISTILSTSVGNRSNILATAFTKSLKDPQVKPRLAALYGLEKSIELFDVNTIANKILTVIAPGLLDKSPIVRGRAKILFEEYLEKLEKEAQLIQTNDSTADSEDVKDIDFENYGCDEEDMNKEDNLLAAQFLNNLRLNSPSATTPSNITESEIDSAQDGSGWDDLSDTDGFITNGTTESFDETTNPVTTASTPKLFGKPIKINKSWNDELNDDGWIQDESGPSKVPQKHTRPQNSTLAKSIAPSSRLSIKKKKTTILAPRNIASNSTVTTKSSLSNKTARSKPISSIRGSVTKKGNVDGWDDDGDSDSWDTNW
Description: co-IP.

Results are given in words; binding and its absence hold for the method and conditions named. In cells and extracts the contact can be indirect. Some results given as binding are weak or reduced against the parent protein; the word gives no strength. Where a sequence is shown, tags or fusion partners need not be part of it.

B1: Myc-tagged version of Sec27 (protein, UniProt P41811 1-889)
chain: MKLDIKKTFSNRSDRVKGIDFHPTEPWVLTTLYSGRVELWNYETQVEVRSIQVTETPVRAGKFIARKNWIIVGSDDFRIRVFNYNTGEKVVDFEAHPDYIRSIAVHPTKPYVLSGSDDLTVKLWNWENNWALEQTFEGHEHFVMCVAFNPKDPSTFASGCLDRTVKVWSLGQSTPNFTLTTGQERGVNYVDYYPLPDKPYMITASDDLTIKIWDYQTKSCVATLEGHMSNVSFAVFHPTLPIIISGSEDGTLKIWNSSTYKVEKTLNVGLERSWCIATHPTGRKNYIASGFDNGFTVLSLGNDEPTLSLDPVGKLVWSGGKNAAASDIFTAVIRGNEEVEQDEPLSLQTKELGSVDVFPQSLAHSPNGRFVTVVGDGEYVIYTALAWRNKAFGKCQDFVWGPDSNSYALIDETGQIKYYKNFKEVTSWSVPMHSAIDRLFSGALLGVKSDGFVYFFDWDNGTLVRRIDVNAKDVIWSDNGELVMIVNTNSNGDEASGYTLLFNKDAYLEAANNGNIDDSEGVDEAFDVLYELSESITSGKWVGDVFIFTTATNRLNYFVGGKTYNLAHYTKEMYLLGYLARDNKVYLADREVHVYGYEISLEVLEFQTLTLRGEIEEAIENVLPNVEGKDSLTKIARFLEGQEYYEEALNISPDQDQKFELALKVGQLTLARDLLTDESAEMKWRALGDASLQRFNFKLAVEAFTNAHDLESLFLLHSSFNNKEGLVTLAKDAERAGKFNLAFNAYWIAGDIQGAKDLLIKSQRFSEAAFLGSTYGLGDDAVNDIVTKWKENLILNGKNTVSERVCGAEGLPGSSSSGDAQPLIDLDSTPAPEQADENKEAEVEDSEFKESNSEAVEAEKKEEEAPQQQQSEQQPEQGEAVPEPVEEES
Take B1: the binding result is “binds”.

Values taken from article doi:10.1101/414367.
